# At least one structure is not confirmed: it was looked up by name or label, or the drawing left a doubt.
# Assays:
# Class I PI 3-kinases = details: read-out: IC50 against each of the various Class I PI 3-kinases; cited from earlier work
# osteoclasts = experiment: Osteoclast function (pit depths on dentine slices); assay type: cell-based, mouse; details: PI3K inhibitors 100 nM, 72 hr
compound,measurement,setting,value
COC[C@H]1OC(=O)c2coc3c2[C@@]1(C)C1=C(C3=O)[C@@H]2CCC(=O)[C@@]2(C)C[C@H]1OC(C)=O [wortmannin],IC50,Class I PI 3-kinases,1 to 10 nM
same,effect on osteoclast activity,osteoclasts,inhibited osteoclast activity
O=c1cc(N2CCOCC2)oc2c(-c3ccccc3)cccc12 [LY294002],effect on osteoclast activity,osteoclasts,inhibited osteoclast activity
